Measurements reported in PubChem BioAssay AID2685 (National Center for Advancing Translational Sciences (NCATS), 2010).
Some of the results follow. Shown are side measurements of this screen, not its main read-out; they come without a call. Most of these compounds were active or inconclusive in the main read-out, so they are no random draw. Words in brackets tell the shape of the fitted curve; partial curves, single points and poor fits give uncertain potencies.

Experiment: qHTS Assay for Lipid Storage Modulators in Drosophila S3 Cells;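 as to cell number change: cells counted by Cell Tracker Red CMTPX staining in the red channel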
Details: BODIPY lipid droplet fluorescence, 18-24 h; for cell number change: measured here: cell count max response, cells fed with added oleic acid
Procedure, shortened: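 Drosophila S3 cells loaded with oleic acid (400 uM, as added) and compounds at several concentrations; lipid droplets imaged by 488-nm laser-scanning cytometry, 500–530 nm intensity and object ratio to cell channel. Percent activity normalized to 20 uM Triacsin C.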

[1] = measured here: lipid fluorescence (Fed channel) AC50, cells fed with added oleic acid
[2] = measured here: cell number channel AC50, cells fed with added oleic acid

## CC(C)Oc1ccc(CNC2CCOC(C)(C)C2)cc1 (centres undefined)
  cell number change: -1.12%
[1]
  AC50: 20.6 µM [falling, single point]

## CN1CN(C)C(c2ccncc2)=C1c1ccncc1
  cell number change: -9.87%

## CC1CCN(c2c(NCC3CCC(C(=O)NCc4ccccc4Cl)CC3)c(=O)c2=O)CC1 (centres undefined)
  cell number change: 38.5%
[2]
  AC50: 29.1 µM [rising, single point]
[1]
  AC50: 1.64 µM [falling, partial curve]

## O=C(NCCN1C(=O)S/C(=C/c2cccnc2)C1=O)c1cccs1
[1]
  AC50: 2.59 µM [falling, full curve]

## CCOc1ccc(-c2cn(-c3ccc(OC)cc3)c(SC)n2)cc1
  cell number change: -43.3%
[2]
  AC50: 4.11 µM [rising, single point]
[1]
  AC50: 16.4 µM [falling, partial curve]

## c1cc(Nc2ncnc3sc4c(c23)CCC4)ccn1
  cell number change: 3.5%
[2]
  AC50: 3.26 µM [rising, partial curve]

## Cn1c(SCC(=O)O)nc2ccccc2c1=O
  cell number change: -6.14%
[1]
  AC50: 2.31 µM [falling, partial curve, poor fit]

## COc1ccc(-n2c(SCC(=O)Nc3ccc(C(=O)O)cc3)nnc2-c2ccccc2)cc1OC
  cell number change: 21.1%
[1]
  AC50: 18.4 µM [rising, partial curve, poor fit]

## COc1ccc(Nc2nc(N)nc(CSCCO)n2)cc1
  cell number change: 0.799%
[1]
  AC50: 0.259 µM [falling, single point]

## Cc1ccn2c(/C=N/OCc3cccc(F)c3)c(-c3ccc(Cl)cc3)nc2c1
  cell number change: -20.1%
[1]
  AC50: 8.2 µM [falling, partial curve]

## COc1ccc(/C=C2\SC(=S)N(CC(=O)NC3C=CS(=O)(=O)C3)C2=O)cc1 (centres undefined)
  cell number change: -30.4%
[2]
  AC50: 0.164 µM [falling, full curve, poor fit]
[1]
  AC50: 29.1 µM [falling, single point]

## O=C(N1CCOCC1)C12CC3CC(C1)CC(c1ccccc1)(C3)C2
  cell number change: 29.4%
[1]
  AC50: 18.4 µM [rising, single point]

## Cc1ccc(NC(=O)c2cc(S(=O)(=O)N3CCCCC3)cs2)cc1
[1]
  AC50: 6.51 µM [rising, single point]

## COc1ccc(Cl)cc1NC(=O)CN(C)C(=O)c1cc2c(s1)CCC(C)C2 (centres undefined)
  cell number change: 45.8%
[2]
  AC50: 5.8 µM [rising, full curve, poor fit]

## CCc1ccc(CCC(=O)Nc2ccc(C)cc2C)o1
  cell number change: 0.948%
[1]
  AC50: 2.91 µM [rising, full curve]

## O=C(NNC(=S)Nc1ccccc1)c1cc(Br)ccc1Cl
  cell number change: 56.4%
[2]
  AC50: 29.1 µM [rising, single point]

## O=C(NC(=S)N(CCO)Cc1ccccc1)c1ccc(F)cc1Cl
  cell number change: -13.5%
[1]
  AC50: 3.26 µM [falling, partial curve]

## OC1(c2ccc(Br)cc2)CCNCC1
  cell number change: -37.9%
[2]
  AC50: 1.16 µM [falling, full curve]
[1]
  AC50: 29.1 µM [falling, partial curve]

## Cc1nn(CC(=O)NCC2CCCO2)c(=O)c2ccccc12 (centres undefined)
  cell number change: 0.287%

## Cc1cc(C(=O)NC2CC2)c2ccccc2n1
  cell number change: -4.82%
[1]
  AC50: 0.517 µM [falling, single point]

## S=c1[nH]nc(Cn2cnc3ccccc32)n1-c1ccccc1
  cell number change: -23.6%

## O=c1c(Cl)c(NCCCO)cnn1-c1nc2ccccc2[nH]1
  cell number change: -65.6%
[2]
  AC50: 20.6 µM [falling, single point]
[1]
  AC50: 18.4 µM [falling, single point]

## CCOC(=O)c1cc2c(nc1C)-c1cc(Cl)cc(Cl)c1OC2O (centres undefined)
[1]
  AC50: 2.06 µM [rising, partial curve]

## O=C(CC1(O)C(=O)N(CCc2ccccc2)c2ccccc21)c1ccco1 (centres undefined)
  cell number change: 5.68%
[1]
  AC50: 0.00461 µM [rising, full curve, poor fit]

## Cc1ccc(CN2CCC(n3nccc3NC(=O)CCOc3ccccc3)CC2)o1
  cell number change: 31.2%
[2]
  AC50: 32.6 µM [rising, single point]

## CCOC(=O)c1cnn(-c2ccccc2)c1-n1cccc1C(=O)C(=O)N(C)C
  cell number change: -41.2%
[2]
  AC50: 2.91 µM [falling, single point]

## CCOC(=O)c1sc(NC(=O)CSc2nnc(Cc3ccccc3)o2)c(C(=O)OCC)c1C
[2]
  AC50: 0.13 µM [rising, full curve, poor fit]
[1]
  AC50: 0.517 µM [rising, full curve]

## CC(C)NC(=O)c1ccc(COc2cc(Cl)ccc2Cl)o1
  cell number change: 2.82%
[2]
  AC50: 0.82 µM [falling, single point]
[1]
  AC50: 0.731 µM [falling, full curve]

## COc1cc2c(C(=O)N3CCN(c4cccc(Cl)c4)CC3)cn(C)c(=O)c2cc1OC
  cell number change: 140%
[2]
  AC50: 2.59 µM [rising, full curve]

## COc1ccc(NC(=O)c2cc(-c3cccs3)on2)cc1
  cell number change: 13.8%

## Cn1c(=O)cc(OCCCC(=O)NCc2cccnc2)c2ccccc21
  cell number change: -24.7%
[1]
  AC50: 7.31 µM [falling, partial curve]

## COC(=O)c1ccc(Nc2nc(C)cc(C)n2)cc1
  cell number change: 29%

## Cc1ccc(OCC(O)Cn2c(NCCc3ccccc3)nc3c2c(=O)[nH]c(=O)n3C)cc1 (centres undefined)
[2]
  AC50: 0.13 µM [rising, full curve, poor fit]

## Cc1cccc(OCc2nnc(SCC(=O)N(C)C3CCCCC3)o2)c1
  cell number change: 78.3%
[2]
  AC50: 8.2 µM [rising, partial curve]

## Nc1cc(=O)[nH]c(SCc2csc(-c3ccccc3)n2)n1
  cell number change: -19.3%
[1]
  AC50: 0.651 µM [rising, single point]

## O=C(O)/C=C/c1cnc2ccccc2c1
  cell number change: 12.4%

## Cn1c(NCc2ccco2)nc2c1c(=O)n(Cc1ccc(Cl)cc1)c(=O)n2C
  cell number change: -18.7%
[1]
  AC50: 6.51 µM [rising, single point]

## CCc1nc(N2CCN(S(C)(=O)=O)CC2)c2c3c(sc2n1)CCCC3
  cell number change: 28.2%
[1]
  AC50: 2.91 µM [rising, single point]

## COc1ccc(-c2cc(-c3n[nH]c(=S)n3-c3cccc4ccccc34)[nH]n2)cc1
  cell number change: -8.82%

## COc1ccc(C2c3ccc(O)cc3Oc3ncn(CCN4CCOCC4)c(=N)c32)cc1OC (centres undefined)
  cell number change: -34.4%
[2]
  AC50: 0.00517 µM [falling, full curve, poor fit]

## COc1cc(C(=O)Nc2ccc3c(c2)CCN3C(C)=O)cc(OC)c1OC
  cell number change: 33.6%
[2]
  AC50: 32.6 µM [rising, single point]

## CCOC(=O)c1nc(NCCc2ccccc2)sc1C
  cell number change: -127%
[2]
  AC50: 29.1 µM [falling, partial curve]
[1]
  AC50: 0.731 µM [falling, single point]

## O=Cc1ccc(OCCCOc2cccc3cccnc23)cc1
  cell number change: -25.3%

## O=C(O)c1cc([N+](=O)[O-])ccc1NCc1ccccn1
  cell number change: 2.19%
[1]
  AC50: 4.11 µM [falling, single point]

## N#CCC(=O)N/N=C/c1coc2ccccc2c1=O
[1]
  AC50: 16.4 µM [rising, single point]

## CC(C)c1cc(NC(=O)CCl)on1
  cell number change: -4.64%
[2]
  AC50: 0.326 µM [falling, single point]
[1]
  AC50: 0.58 µM [falling, single point]

## CCc1ccc(OCC(O)CNC(C)(C)C)cc1 (centres undefined)
  cell number change: 23.1%
[2]
  AC50: 0.00411 µM [rising, full curve, poor fit]
[1]
  AC50: 3.26 µM [rising, single point]

## CCCCN(CCCC)Cc1cc2ccccc2c2c1COC2
  cell number change: -10.9%
[2]
  AC50: 4.11 µM [rising, partial curve, poor fit]

## Cc1oc2cc3oc(=O)c(CC(=O)NCCCC(=O)O)c(C)c3cc2c1C
  cell number change: -8.19%
[1]
  AC50: 4.11 µM [falling, single point]

## CCc1ccccc1NC(=O)c1cc(-c2ccc(OC)cc2)on1
  cell number change: -20.8%
[1]
  AC50: 2.59 µM [rising, full curve]

## COc1ccc(N(C(=O)CCC(=O)Nc2cc(C)on2)C(C(=O)NC2CCCC2)c2ccco2)cc1 (centres undefined)
  cell number change: 65.7%
[2]
  AC50: 29.1 µM [rising, single point]

## CC(=O)Nc1ccc(NC(=O)C2CC(=O)N(c3cccc(C)c3C)C2)cc1 (centres undefined)
  cell number change: 5.15%
[1]
  AC50: 1.3 µM [rising, partial curve]

## CCC(=O)NCCNc1nc2cc(C)c(C)cc2cc1C#N
  cell number change: -19.5%
[1]
  AC50: 0.103 µM [falling, full curve, poor fit]

## COc1cccc(-c2cc(C(=O)NC3CCCCC3)no2)c1
  cell number change: 35.7%
[2]
  AC50: 8.2 µM [rising, partial curve, poor fit]

## COc1ccccc1C(=O)NCC(=O)N/N=C/c1ccncc1
  cell number change: 24.9%
[1]
  AC50: 4.11 µM [falling, single point]

## COc1cc(OC)c(NC(=O)CCc2nc(-c3cccs3)no2)cc1Cl
  cell number change: -63.8%
[2]
  AC50: 29.1 µM [falling, partial curve, poor fit]
[1]
  AC50: 4.11 µM [rising, full curve, poor fit]

## Cc1cccc(N2CCN(C(=O)COc3ccc4ccc(=O)oc4c3)CC2)c1C
  cell number change: 6.12%
[1]
  AC50: 18.4 µM [falling, single point]

## CCOc1cc2[nH]c(=O)n(CCCC(=O)N(C)Cc3ccccc3)c(=O)c2cc1OCC
  cell number change: -60.2%
[2]
  AC50: 20.6 µM [falling, partial curve]

## COc1ccc(CN2CC(C(=O)N3CC(C)CC(C)C3)CC2=O)cc1 (centres undefined)
  cell number change: 4.45%

## Cc1ccc(C(=O)N/N=C(\CC(C)C)c2ccccc2)cc1
  cell number change: -3.45%
[1]
  AC50: 6.51 µM [rising, partial curve, poor fit]

## O=C(NCCc1ccco1)C(=O)NCC1OCCCN1S(=O)(=O)c1ccc(Cl)cc1 (centres undefined)
[1]
  AC50: 0.082 µM [rising, full curve, poor fit]

## COc1ccc(-n2c(SCC(=O)Nc3ccccc3)nc3c(c2=O)SCC3)cc1
[2]
  AC50: 0.651 µM [rising, single point]
[1]
  AC50: 0.731 µM [rising, full curve]
